Measured values as given in PubChem BioAssay AID587 (National Center for Advancing Translational Sciences (NCATS), 2007).
The campaign covered roughly 59,000 compounds. About 35 (0.06%) were called active. The shares of active, inactive and inconclusive entries below differ from those in the screen. Cut-off read from the data, not from the text of the source: active = max dye-equivalent concentration above about 10 nM; inconclusive = between about 1.1 nM and that limit; inactive = weaker than that.

Test: qHTS Assay for Spectroscopic Profiling in Texas Red Spectral Region
Details: Compound fluorescence, Texas Red channel, 547/618 nm; stronger effect = higher value
Summary of the method: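 qHTS profiling of intrinsic compound fluorescence; 100 mM Tris pH 8.0; 15 min RT; ex 547 / em 618 nm; response expressed as Texas Red dye-equivalent concentration from six-point plate standard.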

SMILES | max dye-equivalent concentration
Cc1ccc(-c2nnn(CC(=O)NCc3ccccc3)n2)c(-n2cnnn2)c1 | inconclusive: 1.3 nM
Cn1c(SC/C=C/c2ccccc2)nnc1-c1ccco1 | inconclusive: 1.3 nM
Cc1ccc2c(c1)c1c3n2CCN[C@H]3CCC1 | inconclusive: 1.9 nM
COCCn1c(=O)c(-c2ccc(OC)cc2)nc2cnc(Oc3cccc(Cl)c3)nc21 | inactive
Cc1ccc(NC(=O)CSc2n[nH]c(-c3ccncc3)n2)cc1C | inconclusive: 1.1 nM
CCCSc1ncnc2c1oc1ccccc12 | inconclusive: 1.3 nM
COc1cc(C(=O)Nc2nnc(CC(=O)N3CCOCC3)s2)cc(OC)c1OC | inconclusive: 1.1 nM
COc1cccc(Cn2c(=O)c(-c3ccc(Cl)cc3)nc3cnc(N4CCOCC4)nc32)c1 | inactive
O=C(c1cccc(C(F)(F)F)c1)N1CCCCCC1 | inconclusive: 1.4 nM
CCCc1cc(N2CCCC(C(=O)NCC)C2)n2ncnc2n1 (configuration not stated) | inconclusive: 1.3 nM
Cc1cc(S(=O)(=O)Nc2cccc(O)c2)c(C)s1 | inconclusive: 2.6 nM
CCOC(=O)c1c(NC(=O)CNCC(O)CO)sc(C)c1C (configuration not stated) | inconclusive: 1.1 nM
CC(=O)c1cccc(N(CC(=O)Nc2cccnc2)S(C)(=O)=O)c1 | inconclusive: 1.2 nM
Cc1ccc(N(Cc2ccco2)C(=O)c2cccc(S(=O)(=O)N(C)C)c2)cc1 | inconclusive: 1.4 nM
O=S(=O)(/N=S1/CC=CCN1S(=O)(=O)c1ccccc1)c1ccccc1 (configuration not stated) | inconclusive: 1.2 nM
Cc1cnc(C(=O)Nc2ccc3c(c2)CCC3)cn1 | inconclusive: 1.4 nM
Cc1ccc2c(c1)c1c(n2CC(O)Cn2nc(C)c(Br)c2C)C(=O)CCC1 (configuration not stated) | inconclusive: 2.2 nM
Nc1nnnn1/N=C/C(Br)=C/c1ccccc1 | inactive
CCNC(=O)c1cc2c(=O)n3cccc(C)c3nc2n(Cc2ccc(C)cc2)c1=N | inconclusive: 1.5 nM
NC(=O)CNCCC(c1ccccc1)c1ccccc1 | inconclusive: 1.3 nM
CCCCCN(CCCCC)C(=O)[C@H](CCC(=O)O)NC(=O)c1ccc(Cl)c(Cl)c1 | inconclusive: 1.8 nM
O=c1c(-c2ccco2)[n+]([O-])c2ccccc2n1OCc1ccccn1 | inconclusive: 1.2 nM

SMILES | max dye-equivalent concentration
CCC(c1nnnn1CCOC)N1CCN(Cc2ccccc2)CC1 (configuration not stated) | inconclusive: 1.1 nM
CN(Cc1ccccc1)S(=O)(=O)c1ccc2c(c1)n(C)c(=O)n2C | inconclusive: 1.3 nM
Cc1ccc(CNC(=O)c2cccc(-n3cnnn3)c2)cc1 | inconclusive: 1.9 nM
COc1ccc(CNc2nc3nc(C)c(Cl)c(C)n3n2)cc1OC | inconclusive: 2 nM
O=C(CCN1CCN(c2ccccc2)CC1)Nc1nccs1 | inconclusive: 1.3 nM
CCOc1ccc(N2C(=O)CC(Sc3nc(C)cc(C)c3C#N)C2=O)cc1 (configuration not stated) | inconclusive: 1.1 nM
CN(C)c1ccc(-c2cncnc2NCc2cccnc2)cc1 | inconclusive: 1.3 nM
CN1CCN(c2oc(COc3ccc(-c4ccccc4)cc3)nc2C#N)CC1 | inconclusive: 1.4 nM
COc1ccc(N(CC(=O)O)N=O)cc1 | inactive
O=C(COC(=O)c1cncc(Br)c1)NCCC1=CCCCC1 | inconclusive: 1.2 nM
CCOC(=O)Cn1cc(C(=O)c2cccs2)c2ccccc21 | inconclusive: 1.2 nM
CC1CCN(C(=O)CSc2nnc(CNC(=O)COc3ccc(Cl)cc3)o2)CC1 | inconclusive: 1.1 nM
COc1ccc(OC)c(C(=O)CSc2nc3cccnc3n2C)c1 | inconclusive: 1.7 nM
COCCn1c(SCC(=O)c2ccc3c(c2)OCCO3)nnc1-c1ccco1 | inconclusive: 1.8 nM
C=CCN1C(=O)CN=C1Nc1cccc(C)c1 | inconclusive: 1.1 nM
CCN=C1Cn2c(nc3scc(-c4ccccc4)c3c2=O)CN1CC | inconclusive: 1.7 nM
Cc1cccc(OCc2n[nH]c(=S)o2)c1 | inconclusive: 1.2 nM
COc1cccc(C2=CC(c3ccc(C)cc3)n3ncnc3N2)c1 (configuration not stated) | inconclusive: 1.7 nM
Cc1nc2oc3c(NCC4CCCO4)ncnc3c2c2c1COC(C)(C)C2 (configuration not stated) | inconclusive: 1.1 nM
CCNc1ncc2nc(-c3cccs3)c(=O)n(CCC#N)c2n1 | inactive
CCC(CC)C(=O)NCCc1cc2c(OC)ccc(OC)c2[nH]c1=O | inconclusive: 1.4 nM
COc1ccc(CCN2C(=O)CC(NCc3ccc4c(c3)OCO4)C2=O)cc1OC (configuration not stated) | inconclusive: 1.6 nM

Reformatted: results already given
SMILES	max dye-equivalent concentration
CN1CCN(c2oc(COc3ccc(-c4ccccc4)cc3)nc2C#N)CC1	inconclusive: 1.4 nM
COc1ccc(N(CC(=O)O)N=O)cc1	inactive
O=C(COC(=O)c1cncc(Br)c1)NCCC1=CCCCC1	inconclusive: 1.2 nM
CCOC(=O)Cn1cc(C(=O)c2cccs2)c2ccccc21	inconclusive: 1.2 nM
CC1CCN(C(=O)CSc2nnc(CNC(=O)COc3ccc(Cl)cc3)o2)CC1	inconclusive: 1.1 nM
COc1ccc(OC)c(C(=O)CSc2nc3cccnc3n2C)c1	inconclusive: 1.7 nM
COCCn1c(SCC(=O)c2ccc3c(c2)OCCO3)nnc1-c1ccco1	inconclusive: 1.8 nM

Further records:

SMILES | max dye-equivalent concentration
Cc1ccc(C)c(-n2c(SCC(=O)NCC3CCCO3)nnc2-c2ccoc2C)c1 (configuration not stated) | inconclusive: 1.2 nM
Cc1onc(-c2ccccc2)c1C(=O)Nc1sc2c(c1C(N)=O)CCC2 | inconclusive: 1.2 nM
COCCn1c(=O)c(-c2ccc(OC)cc2)nc2cnc(Nc3cccc(OC)c3)nc21 | inactive
Clc1ccccc1C(c1nnnn1Cc1ccco1)N1CCN(Cc2ccco2)CC1 (configuration not stated) | inconclusive: 1.3 nM
CCOC(=O)C1CCCN(C(=O)Cc2c(F)cccc2Cl)C1 (configuration not stated) | inconclusive: 1.3 nM
CC(OC(=O)c1cccs1)C(=O)NCc1cccs1 (configuration not stated) | inconclusive: 1.1 nM
CN[C@H]1[C@H](O)[C@@H](O[C@@H]2[C@H](O)[C@@H](O[C@H]3OC(CN)=CC[C@H]3N)[C@@H](N)C[C@H]2N)OC[C@@]1(C)O | inactive
CCn1c(=O)c(C(=O)Nc2cccnc2)c(O)c2ccccc21 | inconclusive: 1.1 nM
N#Cc1c(N)sc2c1CCN(C(=O)OCc1ccccc1)C2 | inconclusive: 1.4 nM
COc1ccc(NC2=NCCC(=O)N2Cc2cccs2)cc1 | inconclusive: 1.1 nM
CCCCn1c(NC(C)=O)c(C#N)c2nc3ccccc3nc21 | inconclusive: 1.7 nM
CC1(C)S[C@@H]2[C@H](NC(=O)[C@@H](NC(=O)N3CCNC3=O)c3ccccc3)C(=O)N2[C@H]1C(=O)O | inconclusive: 1.1 nM
CCOC(=O)CNC(=O)c1cn(CC(C)C)c(=O)c2cc(OC)c(OC)cc12 | inconclusive: 1.1 nM
Cc1occc1-c1nnc(SCC(=O)Nc2ccccc2)n1Cc1ccccc1 | inconclusive: 1.1 nM
COCCNC(=O)CSc1nc2ccccc2c(=O)n1-c1cccc(OC)c1 | inconclusive: 1.5 nM
COc1ccc(C(c2nnnn2CCc2ccccc2)N2CCN(C)CC2)cc1OC (configuration not stated) | inconclusive: 1.4 nM
COc1ccc(C(=O)Cn2c(N3CCOCC3)nc3ccccc32)cc1OC | inconclusive: 1.3 nM
O=C(Nc1ccc(F)c(F)c1)c1ccc(F)c(S(=O)(=O)N2CCOCC2)c1 | inconclusive: 1.4 nM
N#Cc1nc(-c2ccccc2Cl)oc1N1CCOCC1 | inconclusive: 2.4 nM
O=C(Nc1ccc(NC(=O)c2ccco2)nc1)c1ccccn1 | inconclusive: 1.3 nM
COc1ccccc1C(OC(=O)c1cccs1)C(=O)NCc1ccco1 (configuration not stated) | inconclusive: 1.7 nM
O=C(O)c1cccc2cccc(-c3cccc4cccc(C(=O)O)c34)c12 | inconclusive: 1.9 nM

SMILES | max dye-equivalent concentration
CCN(CC)c1nc2ccccc2n2cnnc12 | inconclusive: 1.1 nM
CC(C)[C@H](NC(=O)OC(C)(C)C)c1nnc(S(=O)(=O)Cc2c(F)cccc2Cl)o1 | inconclusive: 2.3 nM
CCCCn1c2nc3ccccc3nc2c2c(=O)n(CCC)cnc21 | inconclusive: 2.1 nM
COn1cnnc1-c1ccccc1 | inconclusive: 1.6 nM
CCOC(=O)c1ccc(NC(=O)COc2ccc(S(=O)(=O)NC(C)C)cc2)cc1 | inconclusive: 1.1 nM
O=S(=O)(c1cccc(-c2cn3cc(Cl)ccc3n2)c1)N1CCOCC1 | inconclusive: 1.2 nM
N#Cc1nc(Cc2cccc3ccccc23)oc1NCc1ccco1 | inconclusive: 1.5 nM
c1ccc2c(-n3ccnc3)nc(-c3ccoc3)nc2c1 | inactive
Cc1ccc(N(C(=O)Cn2nnc3ccccc32)C(C(=O)NCc2ccco2)c2ccc(C)o2)cc1 (configuration not stated) | inconclusive: 1.2 nM
Cn1nc(CC(=O)Nc2ccc3c(c2)CCC3)c2ccccc2c1=O | inconclusive: 1.8 nM
COC(=O)c1ccc2c(=O)n(C3CCCCC3)c(SCC#N)nc2c1 | inconclusive: 1.3 nM
O=C(O)CCCCCNC(=O)c1ccncc1 | inconclusive: 2 nM
C[C@@](N)(C(=O)O)c1ccc(C(=O)O)cc1 | inconclusive: 1.3 nM
CC1CCc2c(nc3ncnn3c2N2CCN(c3ccccc3)CC2)C1 (configuration not stated) | inconclusive: 1.9 nM
Cc1ccc(CNC(=O)C2CCC(=O)N2C2CCCCC2)cc1 (configuration not stated) | inconclusive: 1.3 nM
O/N=C1/C2C3CC4C5C3C1C5C1(OCCO1)C42 (configuration not stated) | inconclusive: 1.6 nM
O=C(O)/C(=C/c1c(C(=O)O)[nH]c2cc(Cl)cc(Cl)c12)c1ccccc1 | inconclusive: 1.1 nM
c1ccc(N2CCN(c3nc4ccccc4n4nnnc34)CC2)cc1 | inactive
O=C1CC(c2ccccc2)CC(O)=C1C=NCCN1CCN(C(=O)Nc2ccccc2)CC1 (configuration not stated) | inconclusive: 1.2 nM
CN(C)CCCNC(=O)c1ccc(-c2ccccc2)cc1 | inactive
CC(C)(C)NC[C@H](O)COc1cccc2c1C[C@@H](O)[C@@H](O)C2 | inactive
